Some of the results follow.
How the values were obtained:
Assay in all cases: log2 fold change, soluble protein after heating vs DMSO (PISA); higher = thermal stabilisation; K562 lysate, 10 uM; active = over 0.2 and 3.5 SD of the protein, either way, in both replicates (recomputed)
[1] = compound: C1=CC=C(C=C1)[C@H](COC2=CC3=C(C=C2)NC(=O)N3)NC(=O)C4=CC=CN(C4=O)CC5=CC(=C(C=C5)F)F
Method in brief: (§1)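 K562 pellets were dounce-homogenised in PBS pH 7.4 with 1 mM MgCl2, and the crude extract at 1 mg/mL protein was treated with 10 μM compound for 30 min. Aliquots were heated for 3 min across 48°C-58°C, pooled, and brought to 0.5% NP-40 at 4°C; soluble protein was the supernatant after 21,000xg for 90 min. Soluble protein was quantified by TMTpro 16plex LC-MS/MS with channel sums equalised, and reported as log2 fold change in thermal stability against DMSO controls, with values from duplicates.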

The chains behind the UniProt entries cited, without tags or fusion partners. Where a name states a change or a piece, a line headed by the entry shows the natural chain unless it says otherwise.
UniProt Q9BUL8: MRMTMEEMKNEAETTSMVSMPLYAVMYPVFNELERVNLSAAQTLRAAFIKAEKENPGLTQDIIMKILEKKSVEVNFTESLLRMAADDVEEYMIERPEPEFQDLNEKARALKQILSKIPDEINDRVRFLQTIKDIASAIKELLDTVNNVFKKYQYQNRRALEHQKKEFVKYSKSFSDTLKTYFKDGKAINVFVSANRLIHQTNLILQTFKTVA
UniProt O75340: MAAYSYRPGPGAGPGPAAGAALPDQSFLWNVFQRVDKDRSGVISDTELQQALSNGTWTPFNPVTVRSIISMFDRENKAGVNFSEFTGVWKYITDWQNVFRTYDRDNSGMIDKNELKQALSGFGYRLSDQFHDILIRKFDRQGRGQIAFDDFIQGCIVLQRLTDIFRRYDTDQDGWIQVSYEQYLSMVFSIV
UniProt P56589: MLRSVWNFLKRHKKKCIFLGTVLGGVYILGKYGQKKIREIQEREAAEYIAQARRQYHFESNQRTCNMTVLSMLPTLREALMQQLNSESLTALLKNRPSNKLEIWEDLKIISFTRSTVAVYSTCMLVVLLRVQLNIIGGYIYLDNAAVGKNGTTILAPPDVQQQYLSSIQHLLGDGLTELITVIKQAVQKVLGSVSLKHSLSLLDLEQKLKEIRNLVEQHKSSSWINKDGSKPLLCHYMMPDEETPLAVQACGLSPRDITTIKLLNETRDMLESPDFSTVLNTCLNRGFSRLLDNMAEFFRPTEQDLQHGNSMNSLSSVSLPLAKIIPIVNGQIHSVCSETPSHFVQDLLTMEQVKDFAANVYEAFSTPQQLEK
UniProt O15534, whole entry, looked up: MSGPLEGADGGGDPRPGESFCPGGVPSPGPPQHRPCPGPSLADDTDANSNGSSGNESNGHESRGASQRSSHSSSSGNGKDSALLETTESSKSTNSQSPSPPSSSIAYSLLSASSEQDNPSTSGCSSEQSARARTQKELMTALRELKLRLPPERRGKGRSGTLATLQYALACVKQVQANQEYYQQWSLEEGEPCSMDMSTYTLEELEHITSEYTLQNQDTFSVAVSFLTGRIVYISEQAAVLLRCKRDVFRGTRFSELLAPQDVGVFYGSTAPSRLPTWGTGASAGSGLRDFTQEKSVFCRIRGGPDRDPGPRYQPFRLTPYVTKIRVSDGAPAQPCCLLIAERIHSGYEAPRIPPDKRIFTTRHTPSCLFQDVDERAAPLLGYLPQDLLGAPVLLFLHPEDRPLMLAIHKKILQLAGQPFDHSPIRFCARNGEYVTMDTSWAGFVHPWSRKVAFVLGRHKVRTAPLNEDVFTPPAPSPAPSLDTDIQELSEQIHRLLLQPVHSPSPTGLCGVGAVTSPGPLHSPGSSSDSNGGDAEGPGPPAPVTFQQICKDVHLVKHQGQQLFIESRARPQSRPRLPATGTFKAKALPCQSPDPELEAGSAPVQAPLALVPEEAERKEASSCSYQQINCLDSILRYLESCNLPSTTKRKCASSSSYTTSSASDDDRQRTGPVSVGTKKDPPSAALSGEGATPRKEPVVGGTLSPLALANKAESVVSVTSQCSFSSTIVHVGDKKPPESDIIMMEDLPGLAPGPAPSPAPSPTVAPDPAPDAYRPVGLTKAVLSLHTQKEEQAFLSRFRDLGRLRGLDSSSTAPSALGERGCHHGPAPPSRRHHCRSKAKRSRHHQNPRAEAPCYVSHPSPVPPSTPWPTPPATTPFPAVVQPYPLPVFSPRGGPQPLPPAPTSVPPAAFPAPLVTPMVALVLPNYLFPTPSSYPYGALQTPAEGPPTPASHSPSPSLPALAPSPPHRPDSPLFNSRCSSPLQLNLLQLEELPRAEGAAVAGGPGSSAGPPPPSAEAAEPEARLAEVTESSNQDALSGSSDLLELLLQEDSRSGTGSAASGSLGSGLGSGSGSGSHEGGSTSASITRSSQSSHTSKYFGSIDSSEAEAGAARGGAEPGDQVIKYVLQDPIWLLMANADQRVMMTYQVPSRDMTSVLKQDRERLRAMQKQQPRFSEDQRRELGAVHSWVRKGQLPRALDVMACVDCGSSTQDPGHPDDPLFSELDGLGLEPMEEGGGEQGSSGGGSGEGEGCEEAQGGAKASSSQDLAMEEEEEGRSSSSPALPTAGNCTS
UniProt O15212, whole entry, looked up: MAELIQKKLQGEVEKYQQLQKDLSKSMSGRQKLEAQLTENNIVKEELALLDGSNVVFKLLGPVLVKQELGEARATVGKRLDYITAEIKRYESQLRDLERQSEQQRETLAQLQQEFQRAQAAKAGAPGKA
UniProt P07737, whole entry, looked up: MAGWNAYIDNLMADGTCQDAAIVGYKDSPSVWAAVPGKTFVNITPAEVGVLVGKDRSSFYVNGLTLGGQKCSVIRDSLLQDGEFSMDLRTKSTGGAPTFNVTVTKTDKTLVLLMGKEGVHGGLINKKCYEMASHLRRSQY
UniProt Q9NV79: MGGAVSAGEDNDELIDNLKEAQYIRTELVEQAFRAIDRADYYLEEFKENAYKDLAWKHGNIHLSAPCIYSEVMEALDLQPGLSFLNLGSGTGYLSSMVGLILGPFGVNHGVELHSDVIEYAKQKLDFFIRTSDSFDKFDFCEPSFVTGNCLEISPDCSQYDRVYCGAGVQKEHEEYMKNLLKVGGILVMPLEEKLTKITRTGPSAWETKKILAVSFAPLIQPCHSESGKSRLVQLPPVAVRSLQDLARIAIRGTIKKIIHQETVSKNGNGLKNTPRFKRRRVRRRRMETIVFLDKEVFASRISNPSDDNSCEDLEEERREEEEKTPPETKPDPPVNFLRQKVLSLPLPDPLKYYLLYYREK
UniProt O15530: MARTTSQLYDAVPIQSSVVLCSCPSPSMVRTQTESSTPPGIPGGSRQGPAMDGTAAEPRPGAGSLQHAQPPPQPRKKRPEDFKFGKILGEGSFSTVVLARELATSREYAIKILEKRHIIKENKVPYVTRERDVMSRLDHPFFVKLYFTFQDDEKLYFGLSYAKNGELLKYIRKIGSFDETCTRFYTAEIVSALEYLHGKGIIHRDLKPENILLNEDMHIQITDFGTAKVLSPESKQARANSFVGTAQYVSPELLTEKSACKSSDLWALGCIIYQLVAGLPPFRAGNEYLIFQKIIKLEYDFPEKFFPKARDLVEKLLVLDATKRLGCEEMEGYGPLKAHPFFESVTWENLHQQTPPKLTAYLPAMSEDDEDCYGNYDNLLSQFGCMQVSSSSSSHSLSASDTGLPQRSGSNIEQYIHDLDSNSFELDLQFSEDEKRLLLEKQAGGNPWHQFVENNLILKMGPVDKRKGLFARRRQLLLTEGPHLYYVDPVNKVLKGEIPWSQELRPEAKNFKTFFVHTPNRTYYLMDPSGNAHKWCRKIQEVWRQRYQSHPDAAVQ

[2] = compound: CC1=C(SC2=C1C(=N[C@H](C3=NN=C(N32)C)CC(=O)N)C4=CC=C(C=C4)Cl)C
Method in brief: as §1

[3] = compound: CC1=C2C(=CC=C1)N=C(N(C2=O)C3=CC=CC=C3C)CN4C=NC5=C(N=CN=C54)N
Method in brief: as §1

[4] = compound: Cc1sc2c(c1C)C(c1ccc(Cl)cc1)=N[C@@H](CC(=O)OC(C)(C)C)c1nnc(C)n1-2
Method in brief: as §1

[5] = compound: c1ccc([C@@H]2C[C@H]2NC2CCNCC2)cc1
Method in brief: as §1

Measured: log2 fold change

PCBP2 (UniProt H3BRU6)
inactive: [1] 0.166 | [2] -0.15 | [3] -0.208 | [4] 0.104 | [5] -0.11

PDCD10 (UniProt Q9BUL8)
inactive: [1] -0.005 | [2] 0.02 | [3] -0.013 | [4] -0.042 | [5] -0.064

PDCD6 (UniProt O75340)
inactive: [1] -0.017 | [2] -0.012 | [3] -0.04 | [4] 0.014 | [5] -0.022

PEX3 (UniProt P56589)
inactive: [4] -0.122 | [5] 0.198

Random excerpt: 2 records from the list
PEX3 (UniProt P56589)
inactive: [4] -0.122 | [5] 0.198

PDCD6 (UniProt O75340)
inactive: [1] -0.017 | [2] -0.012 | [3] -0.04 | [4] 0.014 | [5] -0.022

(next part)

PEX5 (UniProt J3KPV0)
inactive: [3] 0.231

PER1 (UniProt O15534)
inactive: [4] 0.501 | [5] 0.089

PFDN6 (UniProt O15212)
inactive: [1] 0.015 | [2] -0.091 | [3] -0.068 | [4] 0.017 | [5] 0.102

PFN1 (UniProt P07737)
inactive: [1] -0.004 | [2] 0.009 | [3] 0 | [4] -0.004 | [5] -0.007

PFN1 (UniProt I3L3D5)
inactive: [1] 0.007 | [2] 0.065 | [5] 0.164

PCMTD2 (UniProt Q9NV79)
inactive: [3] 0.204

PDCD6 isoform 2 (UniProt O75340)
inactive: [5] 0.073

PDPK1 (UniProt O15530)
inactive: [2] 0 | [3] -0.035 | [4] 0.022 | [5] -0.069
